{"source": "the supplement of paper PMC12889115", "test_system": "Salmonella enterica serovar Typhimurium SL1344", "assay": "bacterial growth OD600 after 18 h with compound and polymyxin B; higher = more bacterial growth (less inhibition)", "conditions": "50 µM, Mueller-Hinton broth", "note": "The other results are listed elsewhere or left out. Values are raw readings; no control value is given beside them.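 In the initial screen, polymyxin B was used at a concentration that permeabilizes Salmonella's outer membrane but not its inner membrane. Maximum growth was set by DMSO wells with or without polymyxin B. Since plates varied, data were ranked per plate, and compounds giving the lowest OD600 advanced as hits.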"}
{"molecule": "CCN(CCO)C(=O)C1CCN(c2nc(-c3ccccc3)nc3c2CCC3)CC1", "values": [{"measurement": "bacterial growth OD600", "setting": "polymyxin B 0.75 µg/mL", "result": 0.869}]}
{"molecule": "Cc1c(CC(=O)N[C@H]2CCCCNC2=O)c2c(n1CC(C)C)CC(C)(C)CC2=O", "values": [{"measurement": "bacterial growth OD600", "setting": "polymyxin B 1 µg/mL", "result": 1.03}]}
{"molecule": "COCC1CCCN(C(=O)c2cc(COc3cccc(C(C)=O)c3)on2)C1", "note": "(stereo unspecified)", "values": [{"measurement": "bacterial growth OD600", "setting": "polymyxin B 1 µg/mL", "result": 1.04}]}
{"molecule": "CCC1CN(CCNC(=O)CCc2ccc3c(c2)OCO3)Cc2cc(OC)ccc2O1", "note": "(stereo unspecified)", "values": [{"measurement": "bacterial growth OD600", "setting": "polymyxin B 0.75 µg/mL", "result": 0.847}]}
{"molecule": "CCC1CN(Cc2ccc(C(=O)OC)cc2)Cc2cc(OC)ccc2O1", "note": "(stereo unspecified)", "values": [{"measurement": "bacterial growth OD600", "setting": "polymyxin B 0.75 µg/mL", "result": 0.001}]}
{"molecule": "O=C(Nc1ccc(Oc2cccnc2)cc1)C1CCN(Cc2ccccc2)CC1", "values": [{"measurement": "bacterial growth OD600", "setting": "polymyxin B 1 µg/mL", "result": 0.795}]}
{"molecule": "CN(C(=O)c1ccco1)C(Cc1ccc(F)cc1F)C1CCN(Cc2cc(F)ccc2F)CC1", "note": "(stereo unspecified)", "values": [{"measurement": "bacterial growth OD600", "setting": "polymyxin B 0.75 µg/mL", "result": 0.587}]}
{"molecule": "COc1ccc(C(=O)N2CCCC2)c(OC2CCN(C3CCCCCC3)CC2)c1", "values": [{"measurement": "bacterial growth OD600", "setting": "polymyxin B 0.75 µg/mL", "result": 0.831}]}
{"molecule": "Cc1ccc(Oc2ncccc2CNC2CCCC2)cn1", "values": [{"measurement": "bacterial growth OD600", "setting": "polymyxin B 1 µg/mL", "result": 0.91}]}
{"molecule": "CC(C)Oc1ccc(CCNCc2c(C(=O)N3CCCC3)nc3sccn23)cc1", "values": [{"measurement": "bacterial growth OD600", "setting": "polymyxin B 0.75 µg/mL", "result": 0.726}]}
{"molecule": "CCC(=O)N[C@@H]1c2ccccc2C2(CCN(C(=O)c3ccc(C)s3)CC2)[C@H]1OCc1cccnc1", "values": [{"measurement": "bacterial growth OD600", "setting": "polymyxin B 0.75 µg/mL", "result": 0.774}]}
{"molecule": "CCC1CN(C(=O)c2cccc(Cn3cccn3)c2)Cc2ccc(Cl)cc2O1", "note": "(stereo unspecified)", "values": [{"measurement": "bacterial growth OD600", "setting": "polymyxin B 0.75 µg/mL", "result": 0.01}]}
{"molecule": "CN(Cc1nccs1)c1ccc(-c2nc(-c3ccccc3F)no2)cn1", "values": [{"measurement": "bacterial growth OD600", "setting": "polymyxin B 1 µg/mL", "result": 0.634}]}
{"molecule": "Cc1nc(N2CCCC2C(=O)NCCC2COc3ccccc3O2)nc2cc(S(C)(=O)=O)ccc12", "note": "(stereo unspecified)", "values": [{"measurement": "bacterial growth OD600", "setting": "polymyxin B 0.75 µg/mL", "result": 0.848}]}
{"molecule": "CCCn1c(C)c(CC(=O)NCc2ncn[nH]2)c2c1CC(C)(C)CC2=O", "values": [{"measurement": "bacterial growth OD600", "setting": "polymyxin B 0.75 µg/mL", "result": 0.962}]}
{"molecule": "Cc1ccccc1-c1noc(-c2ccc(NCCCO)nc2)n1", "values": [{"measurement": "bacterial growth OD600", "setting": "polymyxin B 0.75 µg/mL", "result": 0.741}]}
{"molecule": "c1ccc(-c2nc(CNCc3cccnc3N3CCOCC3)co2)cc1", "values": [{"measurement": "bacterial growth OD600", "setting": "polymyxin B 0.75 µg/mL", "result": 0.784}]}
{"molecule": "COc1ccc(CN2C(=O)O[C@@H]3CN(c4ncccn4)C[C@@H]32)cc1OC", "values": [{"measurement": "bacterial growth OD600", "setting": "polymyxin B 0.75 µg/mL", "result": 0.983}]}
{"molecule": "COc1ccc(-c2nc(CN3CCCCC3CO)c(C)o2)c(C)c1C", "note": "(stereo unspecified)", "values": [{"measurement": "bacterial growth OD600", "setting": "polymyxin B 0.75 µg/mL", "result": 0.739}]}
{"molecule": "O=C1CCC(CCC(=O)N2CCCC(C(=O)c3cccnc3)C2)(Cc2cccc3ccccc23)N1", "note": "(stereo unspecified)", "values": [{"measurement": "bacterial growth OD600", "setting": "polymyxin B 0.75 µg/mL", "result": 0.816}]}
{"molecule": "CC1CCN(Cc2nnnn2CC(=O)NCC2COc3ccccc3O2)CC1", "note": "(stereo unspecified)", "values": [{"measurement": "bacterial growth OD600", "setting": "polymyxin B 0.75 µg/mL", "result": 0.541}]}
{"molecule": "COCCCN1C(=O)CC(CC(=O)N(C)Cc2ccc3nccnc3c2)(c2ccccc2Cl)C1=O", "note": "(stereo unspecified)", "values": [{"measurement": "bacterial growth OD600", "setting": "polymyxin B 0.75 µg/mL", "result": 0.834}]}
{"molecule": "CCN(CC1CCN(C2CCN(C)CC2)CC1)C(=O)c1ccc(-c2ccccc2)cc1", "values": [{"measurement": "bacterial growth OD600", "setting": "polymyxin B 1 µg/mL", "result": 1.01}]}
{"molecule": "COc1cccc(CN2CCN(Cc3nc(-c4ccccc4)cs3)CC2CCO)c1", "note": "(stereo unspecified)", "values": [{"measurement": "bacterial growth OD600", "setting": "polymyxin B 1 µg/mL", "result": 1.1}]}
{"molecule": "COc1cccc(OCc2cc(C(=O)N3CCCCC3c3cccnc3)n[nH]2)c1", "note": "(stereo unspecified)", "values": [{"measurement": "bacterial growth OD600", "setting": "polymyxin B 1 µg/mL", "result": 0.904}]}
{"molecule": "COCCn1cc(C(=O)NCC2(c3ccccc3)CCCC2)c(=O)c(C(=O)N(C)C(C)C)c1", "values": [{"measurement": "bacterial growth OD600", "setting": "polymyxin B 0.75 µg/mL", "result": 0.93}]}
{"molecule": "O=C1CCC(C(=O)N2CCC(CCc3ccccc3)CC2)CN1Cc1ccccn1", "note": "(stereo unspecified)", "values": [{"measurement": "bacterial growth OD600", "setting": "polymyxin B 1 µg/mL", "result": 0.932}]}
{"molecule": "COCc1noc(-c2ccc(NCCc3cscn3)nc2)n1", "values": [{"measurement": "bacterial growth OD600", "setting": "polymyxin B 1 µg/mL", "result": 0.933}]}
{"molecule": "COc1ccc(C(=O)NC2CC2)c(OC2CCN(Cc3nc(C(C)C)cs3)CC2)c1", "values": [{"measurement": "bacterial growth OD600", "setting": "polymyxin B 1 µg/mL", "result": 0.756}]}
{"molecule": "O=C(NCC1CCCO1)C1CCN(C2CCN(C(=O)/C=C/c3ccccc3)CC2)CC1", "note": "(stereo unspecified)", "values": [{"measurement": "bacterial growth OD600", "setting": "polymyxin B 1 µg/mL", "result": 0.741}]}
{"molecule": "Cc1ncc(CN2CCC(n3nccc3NC(=O)Cc3ccccc3)CC2)s1", "values": [{"measurement": "bacterial growth OD600", "setting": "polymyxin B 1 µg/mL", "result": 0.866}]}
